These are yes or no findings as the source states them, for the method shown. Some entries that bind do so weakly or less than the wild type. For some of these results: Where a sequence is shown, tags or fusion partners need not be part of it.
Assays:
[1] = target: His-tagged wild type human Prx4 (peroxiredoxin 4) (human) (UniProt Q13162); assay: non-reducing SDS-PAGE (disulfide-linked dimer, redox blotting); purified pre-reduced Prx (20 uM) incubated with cis-WOOH, trans-WOOH (1-20 uM) or H2O2 (2.5-20 uM) for 10 s at 5 °C in 50 mM sodium phosphate pH 7.4 with 100 uM DTPA; NEM 50 mM; non-reducing 4-12% SDS-PAGE, silver stain; monomer and dimer bands; both purified
[2] = target: T1, mouse Prx2, endogenous in arteries (mouse (endogenous in aorta and mesenteric arteries)), Q61171; assay: non-reducing SDS-PAGE and immunoblot (disulfide-linked dimer); aorta and mesenteric arteries of naive or LPS-treated mice (with or without L-Trp infusion), perfused with 100 mM NEM, homogenised in Laemmli buffer; non-reducing electrophoresis, immunoblot for PKG1α, Prx2, Prx4; dimer band to total; conditions: remark: other sources report otherwise
T1 chain: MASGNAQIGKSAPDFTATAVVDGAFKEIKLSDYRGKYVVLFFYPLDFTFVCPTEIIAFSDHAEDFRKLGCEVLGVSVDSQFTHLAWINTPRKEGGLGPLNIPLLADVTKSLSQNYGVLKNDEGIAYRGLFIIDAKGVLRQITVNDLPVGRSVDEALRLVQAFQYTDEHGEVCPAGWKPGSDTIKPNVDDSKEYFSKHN

[3] = target: mouse Prx4, endogenous in arteries (mouse (endogenous in aorta and mesenteric arteries)) (UniProt O08807); assay: as above
[4] = target: mouse PKG1α, endogenous in mesenteric arteries (mouse (endogenous in mesenteric arteries)) (UniProt P0C605); assay: as above

B1: His-tagged wild type human Prx4 (peroxiredoxin 4) (enzyme, UniProt Q13162 38-271)
chain: WETEERPRTREEECHFYAGGQVYPGEASRVSVADHSLHLSKAKISKPAPYWEGTAVIDGEFKELKLTDYRGKYLVFFFYPLDFTFVCPTEIIAFGDRLEEFRSINTEVVACSVDSQFTHLAWINTPRRQGGLGPIRIPLLSDLTHQISKDYGVYLEDSGHTLRGLFIIDDKGILRQITLNDLPVGRSVDETLRLVQAFQYTDKHGEVCPAGWKPGSETIIPDPAGKLKYFDKLN
- binding [1]: binds

B2: mouse Prx2, endogenous in arteries, Q61171 1-198 (enzyme)
chain: MASGNAQIGKSAPDFTATAVVDGAFKEIKLSDYRGKYVVLFFYPLDFTFVCPTEIIAFSDHAEDFRKLGCEVLGVSVDSQFTHLAWINTPRKEGGLGPLNIPLLADVTKSLSQNYGVLKNDEGIAYRGLFIIDAKGVLRQITVNDLPVGRSVDEALRLVQAFQYTDEHGEVCPAGWKPGSDTIKPNVDDSKEYFSKHN
- binding [2]: binds

B3: mouse Prx4, endogenous in arteries (enzyme, UniProt O08807 41-274)
chain: LESDERFRTRENECHFYAGGQVYPGEASRVSVADHSLHLSKAKISKPAPYWEGTAVINGEFKELKLTDYRGKYLVFFFYPLDFTFVCPTEIIAFGDRIEEFKSINTEVVACSVDSQFTHLAWINTPRRQGGLGPIRIPLLSDLNHQISKDYGVYLEDSGHTLRGLFIIDDKGVLRQITLNDLPVGRSVDETLRLVQAFQYTDKHGEVCPAGWKPGSETIIPDPAGKLKYFDKLN
- binding [3]: binds

B4: mouse PKG1α, endogenous in mesenteric arteries (enzyme, UniProt P0C605 1-671)
chain: MSELEEDFAKILMLKEERIKELEKRLSEKEEEIQELKRKLHKCQSVLPVPSTHIGPRTTRAQGISAEPQTYRSFHDLRQAFRKFTKSERSKDLIKEAILDNDFMKNLELSQIQEIVDCMYPVEYGKDSCIIKEGDVGSLVYVMEDGKVEVTKEGVKLCTMGPGKVFGELAILYNCTRTATVKTLVNVKLWAIDRQCFQTIMMRTGLIKHTEYMEFLKSVPTFQSLPDEILSKLADVLEETHYENGEYIIRQGARGDTFFIISKGQVNVTREDSPSEDPVFLRTLGKGDWFGEKALQGEDVRTANVIAAEAVTCLVIDRDSFKHLIGGLDDVSNKAYEDAEAKAKYEAEAAFFANLKLSDFNIIDTLGVGGFGRVELVQLKSEESKTFAMKILKKRHIVDTRQQEHIRSEKQIMQGAHSDFIVRLYRTFKDSKYLYMLMEACLGGELWTILRDRGSFEDSTTRFYTACVVEAFAYLHSKGIIYRDLKPENLILDHRGYAKLVDFGFAKKIGFGKKTWTFCGTPEYVAPEIILNKGHDISADYWSLGILMYELLTGSPPFSGPDPMKTYNIILRGIDMIEFPKKIAKNAANLIKKLCRDNPSERLGNLKNGVKDIQKHKWFEGFNWEGLRKGTLTPPIIPSVASPTDTSNFDSFPEDSDEPPPDDNSGWDIDF
- binding [4]: binds
